# Measured values: patent publication US20250129173A1 (SHENYANG SUNSHINE PHARMACEUTICAL, published 2025)
# No constants are given. Whether binding was seen depends on the method and setting. Some entries that bind do so weakly or less than the wild type. Where a sequence is shown, tags or fusion partners need not be part of it.
# T1: Fc fusion protein of human PRLR-ECD functional structural domain Fibronectin type-III 2 (129-229) (human) (UniProt P16471)
# T1 sequence: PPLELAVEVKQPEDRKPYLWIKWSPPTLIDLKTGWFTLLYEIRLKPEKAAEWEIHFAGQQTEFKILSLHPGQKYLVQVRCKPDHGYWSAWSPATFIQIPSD
# Target: T1, Fc fusion protein of human PRLR-ECD functional structural domain Fibronectin type-III 2 (129-229) (human)
# Experiment: Western blot, reductively denatured Fc fusion of the domain
binder,measurement,value
"murine-derived anti-human PRLR monoclonal antibody SPGA02-260 (antibody, V domains shown, Mouse monoclonal antibody purified from hybridoma supernatant by protein A; also called SPHA02-260) VH: QVQLKESGPGLVAPSQSLSITCTVSGFSLTRNGVSWVRQPPGKGLEWLGIIWGDGSTNYHSALISRLSISKDNSKSQVFLKLNSLQTDDTATYYCAKEGLYYYGRYFDVWGAGTTVTVSS VL: DIVMTQSHKFMSTSVGDRVSITCKASQDVGSAVAWYQQKPGQSPKVLIYWASTRHTGVPDRFTGSGSGTDFTLTISNVQSEDLADYFCQQYSNYPLTFGGGTKLEIR",binding,binds
